No constants are given. Whether binding was seen depends on the method and setting. Binding seen in cells or lysates may run through a third protein. Some binding calls cover weakened binding; strength is not graded here. Sequences can lack the tags named with a protein.

By UniProt entry, the sequences of proteins in these tests, tags left out.
UniProt Q93009: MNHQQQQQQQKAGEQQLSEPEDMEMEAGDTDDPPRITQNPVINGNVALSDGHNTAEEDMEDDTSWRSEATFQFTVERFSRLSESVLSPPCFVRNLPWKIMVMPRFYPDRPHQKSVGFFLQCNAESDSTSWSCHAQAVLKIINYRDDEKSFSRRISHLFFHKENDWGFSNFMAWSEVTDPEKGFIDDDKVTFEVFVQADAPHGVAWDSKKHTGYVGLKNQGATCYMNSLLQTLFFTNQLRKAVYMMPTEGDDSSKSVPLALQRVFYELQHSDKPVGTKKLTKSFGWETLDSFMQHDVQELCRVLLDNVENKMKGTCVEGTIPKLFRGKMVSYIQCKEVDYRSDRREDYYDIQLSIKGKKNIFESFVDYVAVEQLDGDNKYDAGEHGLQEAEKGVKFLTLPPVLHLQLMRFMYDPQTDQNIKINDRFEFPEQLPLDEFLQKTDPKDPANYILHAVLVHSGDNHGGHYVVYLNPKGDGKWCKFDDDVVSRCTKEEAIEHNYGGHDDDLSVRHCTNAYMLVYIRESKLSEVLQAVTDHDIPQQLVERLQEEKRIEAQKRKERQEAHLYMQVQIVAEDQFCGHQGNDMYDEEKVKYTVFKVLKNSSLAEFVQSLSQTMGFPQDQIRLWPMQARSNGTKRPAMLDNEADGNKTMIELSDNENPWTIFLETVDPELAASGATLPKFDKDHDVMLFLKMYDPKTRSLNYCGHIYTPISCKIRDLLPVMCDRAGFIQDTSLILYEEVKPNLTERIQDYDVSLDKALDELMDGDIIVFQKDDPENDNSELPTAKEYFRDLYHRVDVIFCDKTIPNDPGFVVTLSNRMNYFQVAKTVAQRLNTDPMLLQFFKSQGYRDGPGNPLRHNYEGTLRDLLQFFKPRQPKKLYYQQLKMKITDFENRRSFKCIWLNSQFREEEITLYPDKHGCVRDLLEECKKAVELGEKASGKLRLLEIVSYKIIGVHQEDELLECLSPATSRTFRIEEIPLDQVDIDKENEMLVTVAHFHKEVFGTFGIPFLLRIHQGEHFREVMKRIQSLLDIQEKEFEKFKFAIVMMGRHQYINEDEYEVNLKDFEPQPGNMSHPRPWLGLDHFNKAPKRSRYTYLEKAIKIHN

For the assay, the target named is T1, GFP–TOPORS WT (human) (UniProt Q9NS56).
T1 sequence: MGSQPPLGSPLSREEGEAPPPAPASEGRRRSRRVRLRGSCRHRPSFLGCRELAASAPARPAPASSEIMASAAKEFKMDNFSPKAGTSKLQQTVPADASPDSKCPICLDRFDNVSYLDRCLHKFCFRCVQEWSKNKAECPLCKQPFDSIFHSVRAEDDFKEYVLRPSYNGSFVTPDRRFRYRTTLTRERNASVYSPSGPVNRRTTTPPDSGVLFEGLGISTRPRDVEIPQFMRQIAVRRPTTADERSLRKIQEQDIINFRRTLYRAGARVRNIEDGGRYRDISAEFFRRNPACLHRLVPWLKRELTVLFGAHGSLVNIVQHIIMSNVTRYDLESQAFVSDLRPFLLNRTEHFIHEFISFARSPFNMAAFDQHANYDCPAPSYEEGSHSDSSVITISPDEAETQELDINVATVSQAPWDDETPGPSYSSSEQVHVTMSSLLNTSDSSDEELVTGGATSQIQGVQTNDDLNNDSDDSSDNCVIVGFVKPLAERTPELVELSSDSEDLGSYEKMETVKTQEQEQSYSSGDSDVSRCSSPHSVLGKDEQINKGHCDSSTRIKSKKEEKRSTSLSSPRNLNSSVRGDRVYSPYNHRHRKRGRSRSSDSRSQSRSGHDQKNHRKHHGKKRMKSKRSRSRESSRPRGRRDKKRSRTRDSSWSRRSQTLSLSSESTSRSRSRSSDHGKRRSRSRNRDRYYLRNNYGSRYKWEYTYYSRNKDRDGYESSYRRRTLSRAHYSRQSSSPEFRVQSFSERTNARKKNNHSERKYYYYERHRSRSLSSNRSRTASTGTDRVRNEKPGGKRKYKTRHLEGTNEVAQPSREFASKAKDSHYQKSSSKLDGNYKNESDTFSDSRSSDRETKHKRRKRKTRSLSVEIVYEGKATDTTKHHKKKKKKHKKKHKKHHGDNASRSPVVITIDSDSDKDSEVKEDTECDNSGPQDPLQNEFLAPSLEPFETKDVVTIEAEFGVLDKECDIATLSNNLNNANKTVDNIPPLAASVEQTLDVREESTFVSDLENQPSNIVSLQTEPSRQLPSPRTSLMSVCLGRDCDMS
The assay can be described thus: co-IP; U2OS cells transfected with GFP expression plasmids, lysed in EBC buffer, GFP IP (GFP-Trap agarose, overnight, 4 °C); immunoblot. Background: Immunoblotting shows a protein as a band on a membrane.

Turning to “USP7 (endogenous, U2OS) (from UniProt Q93009 1-1102) (enzyme)”, the binding entry is given as “binds”.

The values are drawn from article PMC11402782.
